# From the supplement of paper PMC8728848
# The other results are listed elsewhere or left out.
# B1: GroEL (Clostridium difficile), Q18CT5 (protein)
# chain: MAKEIKFSEETRRALEAGVNKLADTVKVTLGPKGRNVILDKKFGSPLITNDGVTIAKEIELEDRFENMGAQLVKEVATKTNDVAGDGTTTATVLAQAIIREGLKNVTAGANPILLRKGIQKAVTVAVEELKNQSRIVETQEAISQVASISAGDEEVGKLIAEAMEIVGKDGVITVEESQTMNTELDAVEGMQFDRGFVSAYMVTDVDKMEAVLNDPYILITDKKISNIQELLPVLEQIVQQGKKLLIIAEDVEGEALSTLVVNKLRGTFDVVAVKAPGFGDRRKEMLQDIAILTGAQVISEELGYDLKEADLSMLGRASSVKVTKESTTIVDGSGDKKAIEDRVTQIKHQVEQTTSDFDREKLMERLAKLAGGVAVVKVGAATEVELKERKLRIEDALNATRAAVEEGIVAGGGTAFVSVIPAIGTLIESLEGEVKLGAQIVKKALEEPLRQIAINAGLEGAVIVQNVVNSEAETGFDALNEKYVNMIEAGIVDPTKVSRSALQNAASIASTFLTTEAAVADLPEKEDAGMPGMGGGMPGMM
# Assays:
# Experiment in all cases: glycan array binding signal (z-score within array); higher = stronger binding
# Details in all cases: glycan notation: IUPAC condensed, linker removed
# [1] = biological target: Fuc(a1-3)[Gal(b1-4)]Glc6S
# Method in brief: (§1)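 Glycan array binding is given as a within-array Z-score, which can be read as non-binding when negative. The arrays, 3228 of them, came from the Consortium for Functional Glycomics database and were retained only where the protein sequence was available. Z-scores were averaged across arrays of the same protein sequence at different concentrations or buffers and across linkers.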
# [2] = biological target: Fuc(a1-3)[Gal(b1-4)]GlcNAc
# Method in brief: as §1
# [3] = biological target: Fuc(a1-3)[Gal(b1-4)]GlcNAc(b1-2)Man
# Method in brief: as §1
# [4] = biological target: Fuc(a1-3)[Gal(b1-4)]GlcNAc(b1-2)Man(a1-3)[Fuc(a1-3)[Gal(b1-4)]GlcNAc(b1-2)Man(a1-6)]Man(b1-4)GlcNAc(b1-4)GlcNAc
# Method in brief: as §1
# [5] = biological target: Fuc(a1-3)[Gal(b1-4)]GlcNAc(b1-2)Man(a1-3)[Fuc(a1-3)[Gal(b1-4)]GlcNAc(b1-2)Man(a1-6)]Man(b1-4)GlcNAc(b1-4)[Fuc(a1-6)]GlcNAc
# Method in brief: as §1
# [6] = biological target: Fuc(a1-3)[Gal(b1-4)]GlcNAc(b1-3)Gal(b1-3)[Fuc(a1-4)]GlcNAc
# Method in brief: as §1
# [7] = biological target: Fuc(a1-3)[Gal(b1-4)]GlcNAc(b1-3)Gal(b1-4)[Fuc(a1-3)]GlcNAc
# Method in brief: as §1
# [8] = biological target: Fuc(a1-3)[Gal(b1-4)]GlcNAc(b1-3)Gal(b1-4)[Fuc(a1-3)]GlcNAc(b1-3)Gal(b1-4)[Fuc(a1-3)]GlcNAc
# Method in brief: as §1
# [9] = biological target: Fuc(a1-3)[Gal(b1-4)]GlcNAc(b1-3)GalNAc
# Method in brief: as §1
# [10] = biological target: Fuc(a1-3)[Gal(b1-4)]GlcNAc(b1-6)GalNAc
# Method in brief: as §1
# [11] = biological target: Fuc(a1-3)[Gal(b1-4)]GlcNAc(b1-6)[Gal(b1-3)GlcNAc(b1-3)]Gal(b1-4)Glc
# Method in brief: as §1
# [12] = biological target: Fuc(a1-3)[Gal(b1-4)]GlcNAc6S
# Method in brief: as §1
# [13] = biological target: Fuc(a1-3)[Gal3S(b1-4)]Glc
# Method in brief: as §1
# [14] = biological target: Fuc(a1-3)[Gal3S(b1-4)]GlcNAc
# Method in brief: as §1
# [15] = biological target: Fuc(a1-3)[Gal3S(b1-4)]GlcNAc6S
# Method in brief: as §1
# [16] = biological target: Fuc(a1-3)[GalNAc(b1-4)]GlcNAc
# Method in brief: as §1
# [17] = biological target: Fuc(a1-3)[GalNAc(b1-4)]GlcNAc6S
# Method in brief: as §1
# Fuc(a1-4)GlcNAc = biological target: Fuc(a1-4)GlcNAc
# Method in brief: as §1
# Fuc(b1-3)GlcNAc = biological target: Fuc(b1-3)GlcNAc
# Method in brief: as §1
# Gal(a1-2)Gal = biological target: Gal(a1-2)Gal
# Method in brief: as §1
# Gal(a1-3)Gal = biological target: Gal(a1-3)Gal
# Method in brief: as §1
# Gal(a1-3)Gal(b1-3)GlcNAc = biological target: Gal(a1-3)Gal(b1-3)GlcNAc
# Method in brief: as §1
# [18] = biological target: Gal(a1-3)Gal(b1-3)GlcNAc(b1-2)Man
# Method in brief: as §1
# [19] = biological target: Gal(a1-3)Gal(b1-3)GlcNAc(b1-2)Man(a1-3)[Gal(a1-3)Gal(b1-3)GlcNAc(b1-2)Man(a1-6)]Man(b1-4)GlcNAc(b1-4)GlcNAc
# Method in brief: as §1
# [20] = biological target: Gal(a1-3)Gal(b1-3)GlcNAc(b1-3)GalNAc
# Method in brief: as §1
# [21] = biological target: Gal(a1-3)Gal(b1-3)GlcNAc(b1-6)GalNAc
# Method in brief: as §1
# [22] = biological target: Gal(a1-3)Gal(b1-3)[Fuc(a1-4)]GlcNAc(b1-2)Man(a1-3)[Gal(a1-3)Gal(b1-3)[Fuc(a1-4)]GlcNAc(b1-2)Man(a1-6)]Man(b1-4)GlcNAc(b1-4)GlcNAc
# Method in brief: as §1
# Gal(a1-3)Gal(b1-4)Glc = biological target: Gal(a1-3)Gal(b1-4)Glc
# Method in brief: as §1
# Gal(a1-3)Gal(b1-4)GlcNAc = biological target: Gal(a1-3)Gal(b1-4)GlcNAc
# Method in brief: as §1
# [23] = biological target: Gal(a1-3)Gal(b1-4)GlcNAc(b1-2)Man
# Method in brief: as §1
binder,measurement,setting,value
B1,glycan array binding signal (z-score),[1],-0.05
same,glycan array binding signal (z-score),[2],-0.07
same,glycan array binding signal (z-score),[3],-0.172
same,glycan array binding signal (z-score),[4],-1.04
same,glycan array binding signal (z-score),[5],-2.09
same,glycan array binding signal (z-score),[6],0.108
same,glycan array binding signal (z-score),[7],0.779
same,glycan array binding signal (z-score),[8],-1.52
same,glycan array binding signal (z-score),[9],-0.464
same,glycan array binding signal (z-score),[10],0.326
same,glycan array binding signal (z-score),[11],-0.995
same,glycan array binding signal (z-score),[12],0.508
same,glycan array binding signal (z-score),[13],-0.085
same,glycan array binding signal (z-score),[14],-1.14
same,glycan array binding signal (z-score),[15],0.173
same,glycan array binding signal (z-score),[16],0.36
same,glycan array binding signal (z-score),[17],-0.461
same,glycan array binding signal (z-score),Fuc(a1-4)GlcNAc,-0.836
same,glycan array binding signal (z-score),Fuc(b1-3)GlcNAc,1.27
same,glycan array binding signal (z-score),Gal(a1-2)Gal,-0.524
same,glycan array binding signal (z-score),Gal(a1-3)Gal,-1.17
same,glycan array binding signal (z-score),Gal(a1-3)Gal(b1-3)GlcNAc,-0.198
same,glycan array binding signal (z-score),[18],-0.098
same,glycan array binding signal (z-score),[19],0.037
same,glycan array binding signal (z-score),[20],0.846
same,glycan array binding signal (z-score),[21],0.01
same,glycan array binding signal (z-score),[22],0.344
same,glycan array binding signal (z-score),Gal(a1-3)Gal(b1-4)Glc,-0.06
same,glycan array binding signal (z-score),Gal(a1-3)Gal(b1-4)GlcNAc,0.298
same,glycan array binding signal (z-score),[23],-0.268
